{"source": "patent US20160333073A1", "about": "“DRUG DELIVERY SYSTEM” (UCL BUSINESS PLC, priority 2014, published 2016)", "key": {"[1]": {"type": "binding", "procedure": "FIG. 1. Harvard Fast Micro-Equilibrium Dialyzer. Each dialyzer is made of polytetrafluoroethylene (PTFE) and contains a 250 μl chamber on either side of a 100 kDa molecular weight cut off (MWCO) cellulose acetate membrane. The chambers were incubated at room temperature for up to 8 hours, and the diffusion from one chamber to the other was assessed. The side in which the peptide is placed is termed the donating chamber. The other side, towards which the peptide diffuses, is termed the receiving chamber.\nFIG. 4. The diffusion of HABP35-F (left-hand column in each case) and RP2-F (right-hand column in each case) in hyaluronic acid, using a Harvard Fast Micro-Equilibrium Dialyzer. […] Concentration of HABP35-F or RP2-F, in the donating and receiving chambers, was measured at the 8-hour time point (n=3). The concentration gradient was then determined (difference between the concentration of the donating and receiving chambers). […]\nIn order to assess whether the retention in the donating chamber was due to an interaction with hyaluronic acid (HA), a solution of 2.5 mg/ml HA (in HEPES buffered saline) was added to each chamber, instead of rabbit vitreous. 20 nmole/ml of HABP35-F or RP2-F was added to the donating chamber and diffusion was measured over 8 hours. […] As a control, diffusion in HEPES buffered saline (HBS) alone was also assessed. […]"}, "[2]": {"experiment": "Diffusion in HEPES buffered saline alone (control medium), Micro-Equilibrium Dialyzer", "details": "8 hours"}}, "note": "At least one peptide structure holds a part that was inferred or is arguable (an end, a ring closure or a residue). Peptide text beside a SMILES is read from it. * marks the point of attachment. FITC = O=C1OC2(c3ccc(O)cc3Oc3cc(O)ccc32)c2ccc(NC(=S)*)cc21", "data": [{"compound": "CC[C@H](C)[C@H](NC(=O)[C@H](CCCCN)NC(=O)[C@H](CCC(N)=O)NC(=O)[C@H](CCCCN)NC(=O)[C@@H](N)CC(C)C)C(=O)N[C@@H](CCCCN)C(=O)N[C@@H](Cc1c[nH]cn1)C(=O)N[C@H](C(=O)N[C@H](C(=O)N[C@@H](CCCCN)C(=O)N[C@@H](CC(C)C)C(=O)N[C@@H](CCCCN)C(=O)N[C@H](C(=O)N[C@H](C(=O)N[C@H](C(=O)N[C@@H](CCCCN)C(=O)N[C@@H](CC(C)C)C(=O)N[C@@H](CCCNC(=N)N)C(=O)N[C@@H](CO)C(=O)N[C@@H](CCC(N)=O)C(=O)N[C@@H](CC(C)C)C(=O)N[C@H](C(=O)N[C@@H](CCCCN)C(=O)N[C@@H](CCCNC(=N)N)C(=O)N[C@@H](CCCCN)C(=O)N[C@@H](CCC(N)=O)C(=O)N[C@@H](CC(N)=O)C(=O)NCC(=O)NCC(=O)NCC(=O)N[C@@H](CO)C(=O)N[C@@H](CCCCNC(=S)Nc1ccc2c(c1)C(=O)OC21c2ccc(O)cc2Oc2cc(O)ccc21)C(N)=O)C(C)C)C(C)C)C(C)C)C(C)C)C(C)C)C(C)C", "note": "[HABP35-F] (H-LKQKIKHVVKLKVVVKLRSQLVKRKQNGGGSK(FITC)-NH2)", "values": [{"measurement": "concentration gradient between donating and receiving chambers", "setting": "[1]; 2.5 mg/ml hyaluronic acid in HEPES buffered saline, 20 nmole/ml peptide, 8 hours, vs RP2-F", "value": "significantly greater concentration gradient"}, {"measurement": "retention in the donating chamber", "setting": "[1]; hyaluronic acid, over time, fluorescence", "value": "retained in the donating chamber to a significantly extent"}, {"measurement": "significantly greater concentration gradient than RP2-F", "setting": "[2]", "value": "not the case"}]}]}
